Test results from US20150368329A1 (ONCOMED PHARMACEUTICALS, published 2015).
These are yes or no findings as the source states them, for the method shown. Some results given as binding are weak or reduced against the parent protein; the word gives no strength.

The chains behind the UniProt entries cited, without tags or fusion partners. Where a name states a change or a piece, a line headed by the entry shows the natural chain unless it says otherwise. A line that says so, or that is headed by a name, gives the form on record, which may keep a tag or linker. Residues count along the entry.
UniProt Q9NR61, residues 27-522: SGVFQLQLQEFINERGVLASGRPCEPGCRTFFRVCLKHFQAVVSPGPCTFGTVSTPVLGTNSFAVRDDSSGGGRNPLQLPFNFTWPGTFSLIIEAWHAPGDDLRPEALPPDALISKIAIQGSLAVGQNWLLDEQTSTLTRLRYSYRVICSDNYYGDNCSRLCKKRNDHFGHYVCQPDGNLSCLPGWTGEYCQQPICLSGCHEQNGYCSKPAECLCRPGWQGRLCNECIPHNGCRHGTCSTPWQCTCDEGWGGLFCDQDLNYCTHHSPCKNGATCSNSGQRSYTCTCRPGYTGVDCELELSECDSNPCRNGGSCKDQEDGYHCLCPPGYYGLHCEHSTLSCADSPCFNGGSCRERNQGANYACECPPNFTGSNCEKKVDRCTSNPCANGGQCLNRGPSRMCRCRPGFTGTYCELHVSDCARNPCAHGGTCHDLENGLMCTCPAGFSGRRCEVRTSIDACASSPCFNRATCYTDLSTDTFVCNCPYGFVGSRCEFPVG
VEGF (ATGEN, South Korea) coated on ELISA plates (P15692, form named): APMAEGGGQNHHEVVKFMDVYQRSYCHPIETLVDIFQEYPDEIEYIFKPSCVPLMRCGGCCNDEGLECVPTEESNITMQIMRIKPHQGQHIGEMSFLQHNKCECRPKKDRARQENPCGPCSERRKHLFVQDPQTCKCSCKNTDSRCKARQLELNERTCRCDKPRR

How the values were obtained:
biotin-DLL4-hFc [1] = molecular target: T1, biotin-DLL4-hFc (UniProt Q9NR61 27-522, limits assumed, biotinylated); test: bridging ELISA; VEGF-coated plate, biotin-DLL4-hFc, streptavidin-HRP; summary of Example 5
T1 construct: not shown: human Fc ('hFc')

[2] = molecular target: VEGF (ATGEN, South Korea) coated on ELISA plates (UniProt P15692); test: as above
biotin-DLL4-hFc [3] = molecular target: T1, biotin-DLL4-hFc; test: bridging ELISA: antibody pre-incubated with 2 ug/ml biotin-DLL4-hFc, captured on a VEGF-coated plate, detected with streptavidin-HRP, absorbance 450-650 nm
[4] = molecular target: VEGF (ATGEN, South Korea) coated on ELISA plates (UniProt P15692); test: as above

Measured: binding

B1: anti-VEGF/anti-DLL4 bispecific antibody 219R45-MB-21M18 (bispecific antibody, human IgG2)
heavy 1: QVQLVQSGAEVKKPGASVKVSCKASGYTFTNYWMHWVRQAPGQGLEWMGDINPSNGRTSYKEKFKRRVTLSVDKSSSTAYMELSSLRSEDTAVYFCTIHYDDKYYPLMDYWGQGTLVTVSSASTKGPSVFPLAPCSRSTSESTAALGCLVKDYFPEPVTVSWNSGALTSGVHTFPAVLQSSGLYSLSSVVTVPSSNFGTQTYTCNVDHKPSNTKVDKTVERKCCVECPPCPAPPVAGPSVFLFPPKPKDTLMISRTPEVTCVVVDVSHEDPEVQFNWYVDGVEVHNAKTKPREEQFNSTFRVVSVLTVVHQDWLNGKEYKCKVSNKGLPAPIEKTISKTKGQPREPQVYTLPPSREKMTKNQVSLTCLVKGFYPSDIAVEWESNGQPENNYKTTPPMLKSDGSFFLYSKLTVDKSRWQQGNVFSCSVMHEALHNHYTQKSLSLSPGK
heavy 2: QVQLVQSGAEVKKPGASVKISCKASGYSFTAYYIHWVKQAPGQGLEWIGYISSYNGATNYNQKFKGRVTFTTDTSTSTAYMELRSLRSDDTAVYYCARDYDYDVGMDYWGQGTLVTVSSASTKGPSVFPLAPCSRSTSESTAALGCLVKDYFPEPVTVSWNSGALTSGVHTFPAVLQSSGLYSLSSVVTVPSSNFGTQTYTCNVDHKPSNTKVDKTVERKCCVECPPCPAPPVAGPSVFLFPPKPKDTLMISRTPEVTCVVVDVSHEDPEVQFNWYVDGVEVHNAKTKPREEQFNSTFRVVSVLTVVHQDWLNGKEYKCKVSNKGLPAPIEKTISKTKGQPREPQVYTLPPSREEMTKNQVSLTCLVEGFYPSDIAVEWESNGQPENNYKTTPPMLDSDGSFFLYSELTVDKSRWQQGNVFSCSVMHEALHNHYTQKSLSLSPGK
light: DIVMTQSPDSLAVSLGERATISCRASESVDNYGISFMKWFQQKPGQPPKLLIYAASNQGSGVPDRFSGSGSGTDFTLTISSLQAEDVAVYYCQQSKEVPWTFGGGTKVEIKRTVAAPSVIFPPSDEQLKSGTASVVCLLNNFYPREAKVQWKVDNALQSGNSQESVTEQDSKDSTYSLSSTLTLSKADYEKHKVYACEVTHQGLSSPVTKSFNRGEC
binds: biotin-DLL4-hFc [1] | [2] | biotin-DLL4-hFc [3] | [4]

B2: anti-VEGF/anti-DLL4 bispecific antibody 219R45-MB-21R75 (bispecific antibody, human IgG2)
heavy 1: QVQLVQSGAEVKKPGASVKVSCKASGYTFTNYWMHWVRQAPGQGLEWMGDINPSNGRTSYKEKFKRRVTLSVDKSSSTAYMELSSLRSEDTAVYFCTIHYDDKYYPLMDYWGQGTLVTVSSASTKGPSVFPLAPCSRSTSESTAALGCLVKDYFPEPVTVSWNSGALTSGVHTFPAVLQSSGLYSLSSVVTVPSSNFGTQTYTCNVDHKPSNTKVDKTVERKCCVECPPCPAPPVAGPSVFLFPPKPKDTLMISRTPEVTCVVVDVSHEDPEVQFNWYVDGVEVHNAKTKPREEQFNSTFRVVSVLTVVHQDWLNGKEYKCKVSNKGLPAPIEKTISKTKGQPREPQVYTLPPSREKMTKNQVSLTCLVKGFYPSDIAVEWESNGQPENNYKTTPPMLKSDGSFFLYSKLTVDKSRWQQGNVFSCSVMHEALHNHYTQKSLSLSPGK
heavy 2: QVQLVQSGAEVKKPGASVKISCKASGYSFTAYYIHWVKQAPGQGLEWIGYIAGYKDATNYNQKFKGRVTFTTDTSTSTAYMELRSLRSDDTAVYYCARDYDYDVGMDYWGQGTLVTVSSASTKGPSVFPLAPCSRSTSESTAALGCLVKDYFPEPVTVSWNSGALTSGVHTFPAVLQSSGLYSLSSVVTVPSSNFGTQTYTCNVDHKPSNTKVDKTVERKCCVECPPCPAPPVAGPSVFLFPPKPKDTLMISRTPEVTCVVVDVSHEDPEVQFNWYVDGVEVHNAKTKPREEQFNSTFRVVSVLTVVHQDWLNGKEYKCKVSNKGLPAPIEKTISKTKGQPREPQVYTLPPSREEMTKNQVSLTCLVEGFYPSDIAVEWESNGQPENNYKTTPPMLDSDGSFFLYSELTVDKSRWQQGNVFSCSVMHEALHNHYTQKSLSLSPGK
light: DIVMTQSPDSLAVSLGERATISCRASESVDNYGISFMKWFQQKPGQPPKLLIYAASNQGSGVPDRFSGSGSGTDFTLTISSLQAEDVAVYYCQQSKEVPWTFGGGTKVEIKRTVAAPSVIFPPSDEQLKSGTASVVCLLNNFYPREAKVQWKVDNALQSGNSQESVTEQDSKDSTYSLSSTLTLSKADYEKHKVYACEVTHQGLSSPVTKSFNRGEC
notes: Monovalent/bispecific IgG2 heterodimer
binds: biotin-DLL4-hFc [1] | [2] | biotin-DLL4-hFc [3] | [4]

B3: anti-VEGF/anti-DLL4 bispecific antibody 219R45-MB-21R83 (bispecific antibody, human IgG2)
heavy 1: QVQLVQSGAEVKKPGASVKVSCKASGYTFTNYWMHWVRQAPGQGLEWMGDINPSNGRTSYKEKFKRRVTLSVDKSSSTAYMELSSLRSEDTAVYFCTIHYDDKYYPLMDYWGQGTLVTVSSASTKGPSVFPLAPCSRSTSESTAALGCLVKDYFPEPVTVSWNSGALTSGVHTFPAVLQSSGLYSLSSVVTVPSSNFGTQTYTCNVDHKPSNTKVDKTVERKCCVECPPCPAPPVAGPSVFLFPPKPKDTLMISRTPEVTCVVVDVSHEDPEVQFNWYVDGVEVHNAKTKPREEQFNSTFRVVSVLTVVHQDWLNGKEYKCKVSNKGLPAPIEKTISKTKGQPREPQVYTLPPSREKMTKNQVSLTCLVKGFYPSDIAVEWESNGQPENNYKTTPPMLKSDGSFFLYSKLTVDKSRWQQGNVFSCSVMHEALHNHYTQKSLSLSPGK
heavy 2: QVQLVQSGAEVKKPGASVKISCKASGYSFTAYYIHWVKQAPGQGLEWIGYISNYNRATNYNQKFKGRVTFTTDTSTSTAYMELRSLRSDDTAVYYCARDYDYDVGMDYWGQGTLVTVSSASTKGPSVFPLAPCSRSTSESTAALGCLVKDYFPEPVTVSWNSGALTSGVHTFPAVLQSSGLYSLSSVVTVPSSNFGTQTYTCNVDHKPSNTKVDKTVERKCCVECPPCPAPPVAGPSVFLFPPKPKDTLMISRTPEVTCVVVDVSHEDPEVQFNWYVDGVEVHNAKTKPREEQFNSTFRVVSVLTVVHQDWLNGKEYKCKVSNKGLPAPIEKTISKTKGQPREPQVYTLPPSREEMTKNQVSLTCLVEGFYPSDIAVEWESNGQPENNYKTTPPMLDSDGSFFLYSELTVDKSRWQQGNVFSCSVMHEALHNHYTQKSLSLSPGK
light: DIVMTQSPDSLAVSLGERATISCRASESVDNYGISFMKWFQQKPGQPPKLLIYAASNQGSGVPDRFSGSGSGTDFTLTISSLQAEDVAVYYCQQSKEVPWTFGGGTKVEIKRTVAAPSVIFPPSDEQLKSGTASVVCLLNNFYPREAKVQWKVDNALQSGNSQESVTEQDSKDSTYSLSSTLTLSKADYEKHKVYACEVTHQGLSSPVTKSFNRGEC
binds: biotin-DLL4-hFc [1] | [2] | biotin-DLL4-hFc [3] | [4]

B4: anti-VEGF/anti-DLL4 bispecific antibody 219R45-MB-21R79 (bispecific antibody, human IgG2)
heavy 1: QVQLVQSGAEVKKPGASVKVSCKASGYTFTNYWMHWVRQAPGQGLEWMGDINPSNGRTSYKEKFKRRVTLSVDKSSSTAYMELSSLRSEDTAVYFCTIHYDDKYYPLMDYWGQGTLVTVSSASTKGPSVFPLAPCSRSTSESTAALGCLVKDYFPEPVTVSWNSGALTSGVHTFPAVLQSSGLYSLSSVVTVPSSNFGTQTYTCNVDHKPSNTKVDKTVERKCCVECPPCPAPPVAGPSVFLFPPKPKDTLMISRTPEVTCVVVDVSHEDPEVQFNWYVDGVEVHNAKTKPREEQFNSTFRVVSVLTVVHQDWLNGKEYKCKVSNKGLPAPIEKTISKTKGQPREPQVYTLPPSREKMTKNQVSLTCLVKGFYPSDIAVEWESNGQPENNYKTTPPMLKSDGSFFLYSKLTVDKSRWQQGNVFSCSVMHEALHNHYTQKSLSLSPGK
heavy 2: QVQLVQSGAEVKKPGASVKISCKASGYSFTAYYIHWVKQAPGQGLEWIGYIANYNRATNYNQKFKGRVTFTTDTSTSTAYMELRSLRSDDTAVYYCARDYDYDVGMDYWGQGTLVTVSSASTKGPSVFPLAPCSRSTSESTAALGCLVKDYFPEPVTVSWNSGALTSGVHTFPAVLQSSGLYSLSSVVTVPSSNFGTQTYTCNVDHKPSNTKVDKTVERKCCVECPPCPAPPVAGPSVFLFPPKPKDTLMISRTPEVTCVVVDVSHEDPEVQFNWYVDGVEVHNAKTKPREEQFNSTFRVVSVLTVVHQDWLNGKEYKCKVSNKGLPAPIEKTISKTKGQPREPQVYTLPPSREEMTKNQVSLTCLVEGFYPSDIAVEWESNGQPENNYKTTPPMLDSDGSFFLYSELTVDKSRWQQGNVFSCSVMHEALHNHYTQKSLSLSPGK
light: DIVMTQSPDSLAVSLGERATISCRASESVDNYGISFMKWFQQKPGQPPKLLIYAASNQGSGVPDRFSGSGSGTDFTLTISSLQAEDVAVYYCQQSKEVPWTFGGGTKVEIKRTVAAPSVIFPPSDEQLKSGTASVVCLLNNFYPREAKVQWKVDNALQSGNSQESVTEQDSKDSTYSLSSTLTLSKADYEKHKVYACEVTHQGLSSPVTKSFNRGEC
binds: biotin-DLL4-hFc [1] | [2] | biotin-DLL4-hFc [3] | [4]
